Literature values as cited in patent US20040213859A1, “Organic nutrient for hair loss treatment” (priority 1999, published 2004).
At least one compound was matched to its structure with a doubt left.

Tested on: androgenetic alopecia
Conditions: applied topically to the scalp, individuals with androgenetic alopecia

Nc1cc(N2CCCCC2)nc(N)[n+]1[O-] [Minoxidil]
hair growth: stimulate hair growth
